# Reference: PubChem BioAssay AID493014 (National Center for Advancing Translational Sciences (NCATS), 2011)
# Some of the results follow. The main result of the screen is listed elsewhere. These columns were measured beside it and carry no call. Most of these compounds were active or inconclusive in the main read-out, so they are no random draw. Potencies come from curve fits of mixed quality, noted in brackets. Peptide text beside a SMILES is read from it. * marks the point of attachment. Cbz = O=C(OCc1ccccc1)*
# Assay: qHTS Assay to Find Inhibitors of Chronic Active B-Cell Receptor Signaling
# Conditions: ABC-DLBCL IkBa-CBG/CBR reporter, luminescence ratio (green luciferase fused to IkBa over red control in TMD8 lymphoma cells), 4 h
# How it was run: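 TMD8 ABC-DLBCL cells carrying doxycycline-inducible green luciferase fused to IkappaBalpha plus unfused red luciferase were exposed to compounds (up to 46 uM) for 4 hrs at 37C. Activity came from the overlap-corrected green/red luminescence ratio.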
# [1] = measured here: CBR red luminescence, cell number
# [2] = measured here: IkBa-CBG green luminescence
SMILES,AC50 [1],AC50 [2]
Cc1nn(CC(C)C)c2sc(C(=O)NC3CC(C)(C)NC(C)(C)C3)cc12,"10 µM [rising, partial curve, poor fit]",–
COc1cc(/C=C2\SC(N)=NC2=O)cc(OC)c1,"8.91 µM [falling, partial curve, poor fit]",–
COc1cccc(OC)c1C(=O)NNC(=O)c1cccc(COc2ccc3c(c2)CCC3)c1,"1.12 µM [rising, partial curve]",–
O=C(CN1CCOCC1)Nc1ccc(Br)cn1,"0.58 µM [falling, partial curve, poor fit]",–
O=C(Nc1ccc(N2CCN(C(=O)c3ccco3)CC2)c(Cl)c1)c1c(F)c(F)c(F)c(F)c1F,"20.6 µM [falling, single point]",–
CCCc1cc(-c2ccc(O)c(OCC)c2)c(C#N)c(N)n1,"0.164 µM [falling, partial curve, poor fit]",–
Cc1ccccc1C(=O)NC1CCN(CC(=O)Nc2nccs2)CC1,"20.6 µM [falling, single point]",–
Cc1c(C(=O)NCc2ccco2)sc2nc(-c3ccccc3)cn12,"3.66 µM [rising, partial curve]",–
Cc1ccccc1CNC(=O)CN(c1cccc(C)c1C)S(C)(=O)=O,"2.51 µM [rising, partial curve]",–
COCc1cc(C)nc(OCC(=O)N/N=C/c2ccc(OC)c(O)c2)c1C#N,"18.4 µM [rising, partial curve]",–
Cc1cc(C)nc(SCCC(=O)N2CCOCC2)n1,"29.1 µM [rising, single point]",–
O=C(CSc1ccc(-c2ccccn2)nn1)c1ccc(F)cc1,"6.31 µM [rising, single point]",–
COCCOC(=O)C1=C(C)NC(=O)CC1c1cc2c(cc1Br)OCO2 (configuration not stated),–,"25.9 µM [falling, single point]"
C/C(=N\NC(=O)C1(C)CC1(Br)Br)c1cccc(NC(=O)C(C)(C)C)c1 (configuration not stated),"29.1 µM [rising, single point]",–
COc1cccc2c(=S)c(CCC(C)=O)c(C)[nH]c12,"29.1 µM [falling, partial curve, poor fit]",–
O=C(NC1CC1)C1CC(=O)N(c2cccc(Cl)c2)C1 (configuration not stated),"5.01 µM [falling, full curve]",–
COC(=O)c1ccc(NC(=O)c2ccccc2NS(C)(=O)=O)cc1,"9.2 µM [falling, partial curve, poor fit]",–
COc1ccc(N2CCN(C(=O)Cn3c(=O)[nH]c4ccccc4c3=O)CC2)cc1,"0.0794 µM [falling, full curve, poor fit]",–
O=C(COc1ccc(C(=O)c2ccccc2)cc1)NCC(=O)Nc1ccccc1Br,"5.17 µM [rising, single point]",–
CCN(C(=O)COC(=O)c1cc(Cl)ccc1OC)c1c(N)n(Cc2ccccc2)c(=O)[nH]c1=O,"29.1 µM [rising, single point]",–
O=C1c2ccccc2NC(c2cn[nH]c2-c2ccc(Cl)cc2)N1O (configuration not stated),"2.06 µM [falling, full curve]",–
COc1ccccc1NS(=O)(=O)c1cc(NC(=O)Cc2n[nH]c(=O)c3ccccc23)ccc1Cl,"18.4 µM [falling, partial curve, poor fit]",–

SMILES,AC50 [1],AC50 [2]
CCOC(=O)CCSc1nnc(-c2cccnc2)n1-c1ccccc1OC,"8.2 µM [falling, partial curve]",–
CCc1ccc(OCCn2cccn2)cc1,"3.98 µM [rising, full curve, poor fit]",–
COc1ccc(OC)c(/C=N/Nc2nncn2/N=C/c2cc(OC)ccc2OC)c1,"32.6 µM [falling, partial curve, poor fit]",–
CCCc1ccc(OC(=O)c2ccc(O)cc2Cl)cc1,"3.98 µM [falling, partial curve]",–
Cc1cc(C)c2sc(NC(=O)C3=COCCO3)nc2c1,"3.98 µM [falling, full curve, poor fit]",–
CCN(CC(=O)NCc1ccc(Cl)cc1)C(=O)c1ccc(S(=O)(=O)NCc2ccco2)cc1,"17.8 µM [falling, single point]",–
NS(=O)(=O)c1ccc2nc(NC(=O)c3ccc4ncsc4c3)sc2c1,"3.98 µM [falling, partial curve]",–
COc1ccc(C(C(=O)NC2CCCC2)N(C(=O)c2snc(-c3ccc(F)cc3)c2N)c2cccc(F)c2)cc1 (configuration not stated),"6.51 µM [rising, single point]",–
Cc1ccc(-c2cc(-c3ccc(F)cc3)c(C#N)c(N)n2)o1,"2.06 µM [falling, full curve, poor fit]",–
CC(C)C(=O)Nc1ncc(Cc2ccccc2Cl)s1,"6.31 µM [rising, single point]",–
COc1ccc(S(=O)(=O)NC(C)C(=O)Nc2ccccc2F)cc1 (configuration not stated),"35.5 µM [falling, single point]",–
Cc1ccc(C)c(C(=O)CN2C(=O)NC3(CCCCCC3)C2=O)c1,"0.517 µM [rising, full curve, poor fit]",–
O=C(Nc1ccccn1)c1nc(-c2ccccc2)n(-c2ccccc2)n1,"6.51 µM [falling, single point]",–
Cc1cc(Cl)c2oc(C(=O)N3CCCCC3CCN3CCCC3=O)c(C)c2c1 (configuration not stated),"17.8 µM [falling, single point]",–
Cc1ccc(COc2ccc(C)nc2[N+](=O)[O-])cc1,"17.8 µM [rising, partial curve, poor fit]",–
CCc1ccc(OCc2ccc(C(=O)O)o2)cc1,"6.31 µM [falling, partial curve]",–
Cc1ccc(NC(=O)COC(=O)Cc2c[nH]c3ccccc23)cc1F,"14.6 µM [falling, partial curve]",–
Cc1c(CNCCc2ccccc2)c(C(=O)O)c(C)n1-c1ccccc1,"22.4 µM [falling, single point]",–
COc1ccc(-c2cc(C(F)(F)F)n3nc(C(=O)Nc4cc(C)on4)cc3n2)cc1OC,"2.59 µM [rising, full curve, poor fit]",–
Cc1ccc(OCc2ccc(C(=O)O)o2)c([N+](=O)[O-])c1,"18.4 µM [falling, single point]",–
CC(C)c1ccc(NC(=O)NCc2ccc(F)cc2)cc1,"0.562 µM [rising, full curve, poor fit]",–
Cc1ccc(S(=O)(=O)CCC(=O)O)cc1C,"20.6 µM [rising, single point]",–

SMILES,AC50 [1],AC50 [2]
COc1cc2c(cc1OC)/C(=C/c1ccc(Cl)cc1)C(=O)OC2,"14.1 µM [falling, single point]",–
COc1ccc(OCc2cccc(C(=O)Nc3cc(C)on3)c2)cc1,"18.4 µM [falling, partial curve, poor fit]",–
COc1cc(CC(=O)Nc2sc3c(c2C(N)=O)CCCC3)cc(OC)c1OC,"5.01 µM [rising, single point]",–
O=C(O)CCn1cc(-c2ccc(Cl)cc2)nc1-c1ccncc1,"6.51 µM [rising, single point]","6.51 µM [falling, single point]"
O=[N+]([O-])c1cccc(Cl)c1NCCNS(=O)(=O)c1ccccc1,"6.31 µM [rising, partial curve, poor fit]",–
Cc1nc2ccccc2c(=O)n1NCc1cccs1,"20 µM [falling, partial curve, poor fit]",–
Fc1cccc(/C=N/Nc2nncc3ccccc23)c1,"6.31 µM [falling, full curve]",–
CSc1ncccc1C(=O)NCC1CCCCC1,"2.24 µM [rising, full curve, poor fit]",–
Cn1c(-c2ccc3c(c2)OCO3)cnc1NCc1cccc(O)c1,"35.5 µM [falling, single point]",–
O=C(COC(=O)/C=C/c1ccc(OC(F)F)cc1)NCc1cccs1,"0.731 µM [rising, full curve, poor fit]",–
Cc1c(O)ccc(NC(=O)/C=C/c2ccccc2)c1C,"11.2 µM [falling, partial curve]",–
CC(NC(=O)COC(=O)c1cccc(S(=O)(=O)N2CCCC2)c1)c1ccccc1 (configuration not stated),"23.1 µM [rising, single point]",–
CC(=O)c1ccc(CCCCCCCCCC(=O)O)s1,"11.2 µM [falling, partial curve, poor fit]",–
CC(NC(=O)CNC(=O)C(Cc1ccccc1)NC(=O)OCc1ccccc1)C(N)=O (stereo not drawn) (Cbz-Phe-Gly-Ala-NH2; configuration not given here),"2.24 µM [rising, full curve]",–
CN(C)c1ccc(NC(=O)CSc2nc(N)c(C(=O)Nc3ccc(N(C)C)cc3)s2)cc1,"5.62 µM [falling, partial curve]",–
CCc1nc(-c2cc3ccc(C)cc3[nH]c2=O)no1,"0.517 µM [rising, full curve, poor fit]",–
COc1ccccc1CNC(=O)CCCc1cn(C)c2ccccc12,"20 µM [falling, partial curve, poor fit]",–
Cc1ccc(S(=O)(=O)c2nnn3c2nc(Nc2cccc(C)c2)c2ccccc23)cc1,"20.6 µM [falling, partial curve, poor fit]",–
Cc1cc(Cl)ccc1NC(=O)c1cc(S(=O)(=O)N2CCOCC2)cn1C,"3.16 µM [rising, partial curve, poor fit]",–
O=C(CSc1n[nH]c(-c2cccs2)n1)N1CCN(S(=O)(=O)c2ccccc2)CC1,"20 µM [rising, single point]",–
CC(C)(C)C(=O)/C(=C\c1ccc([N+](=O)[O-])cc1)n1cncn1,"7.31 µM [falling, partial curve]","10.3 µM [rising, partial curve, poor fit]"

# Molecules listed so far containing an aryl methoxy group (16):
SMILES,AC50 [1],AC50 [2]
COc1cc(/C=C2\SC(N)=NC2=O)cc(OC)c1,"8.91 µM [falling, partial curve, poor fit]",–
COc1cccc(OC)c1C(=O)NNC(=O)c1cccc(COc2ccc3c(c2)CCC3)c1,"1.12 µM [rising, partial curve]",–
COCc1cc(C)nc(OCC(=O)N/N=C/c2ccc(OC)c(O)c2)c1C#N,"18.4 µM [rising, partial curve]",–
COc1cccc2c(=S)c(CCC(C)=O)c(C)[nH]c12,"29.1 µM [falling, partial curve, poor fit]",–
COc1ccc(N2CCN(C(=O)Cn3c(=O)[nH]c4ccccc4c3=O)CC2)cc1,"0.0794 µM [falling, full curve, poor fit]",–
CCN(C(=O)COC(=O)c1cc(Cl)ccc1OC)c1c(N)n(Cc2ccccc2)c(=O)[nH]c1=O,"29.1 µM [rising, single point]",–
COc1ccccc1NS(=O)(=O)c1cc(NC(=O)Cc2n[nH]c(=O)c3ccccc23)ccc1Cl,"18.4 µM [falling, partial curve, poor fit]",–
CCOC(=O)CCSc1nnc(-c2cccnc2)n1-c1ccccc1OC,"8.2 µM [falling, partial curve]",–
COc1ccc(OC)c(/C=N/Nc2nncn2/N=C/c2cc(OC)ccc2OC)c1,"32.6 µM [falling, partial curve, poor fit]",–
COc1ccc(C(C(=O)NC2CCCC2)N(C(=O)c2snc(-c3ccc(F)cc3)c2N)c2cccc(F)c2)cc1 (configuration not stated),"6.51 µM [rising, single point]",–
COc1ccc(S(=O)(=O)NC(C)C(=O)Nc2ccccc2F)cc1 (configuration not stated),"35.5 µM [falling, single point]",–
COc1ccc(-c2cc(C(F)(F)F)n3nc(C(=O)Nc4cc(C)on4)cc3n2)cc1OC,"2.59 µM [rising, full curve, poor fit]",–
COc1cc2c(cc1OC)/C(=C/c1ccc(Cl)cc1)C(=O)OC2,"14.1 µM [falling, single point]",–
COc1ccc(OCc2cccc(C(=O)Nc3cc(C)on3)c2)cc1,"18.4 µM [falling, partial curve, poor fit]",–
COc1cc(CC(=O)Nc2sc3c(c2C(N)=O)CCCC3)cc(OC)c1OC,"5.01 µM [rising, single point]",–
COc1ccccc1CNC(=O)CCCc1cn(C)c2ccccc12,"20 µM [falling, partial curve, poor fit]",–
